Assay results as given in PMC11780777.
No constants are given. Whether binding was seen depends on the method and setting. In cells and extracts the contact can be indirect. Some entries that bind do so weakly or less than the wild type. For some of these results: Tags and fused reporters may be left off the sequences shown.

Amino acid sequences for entries named in this document (tags omitted).
UniProt P41229: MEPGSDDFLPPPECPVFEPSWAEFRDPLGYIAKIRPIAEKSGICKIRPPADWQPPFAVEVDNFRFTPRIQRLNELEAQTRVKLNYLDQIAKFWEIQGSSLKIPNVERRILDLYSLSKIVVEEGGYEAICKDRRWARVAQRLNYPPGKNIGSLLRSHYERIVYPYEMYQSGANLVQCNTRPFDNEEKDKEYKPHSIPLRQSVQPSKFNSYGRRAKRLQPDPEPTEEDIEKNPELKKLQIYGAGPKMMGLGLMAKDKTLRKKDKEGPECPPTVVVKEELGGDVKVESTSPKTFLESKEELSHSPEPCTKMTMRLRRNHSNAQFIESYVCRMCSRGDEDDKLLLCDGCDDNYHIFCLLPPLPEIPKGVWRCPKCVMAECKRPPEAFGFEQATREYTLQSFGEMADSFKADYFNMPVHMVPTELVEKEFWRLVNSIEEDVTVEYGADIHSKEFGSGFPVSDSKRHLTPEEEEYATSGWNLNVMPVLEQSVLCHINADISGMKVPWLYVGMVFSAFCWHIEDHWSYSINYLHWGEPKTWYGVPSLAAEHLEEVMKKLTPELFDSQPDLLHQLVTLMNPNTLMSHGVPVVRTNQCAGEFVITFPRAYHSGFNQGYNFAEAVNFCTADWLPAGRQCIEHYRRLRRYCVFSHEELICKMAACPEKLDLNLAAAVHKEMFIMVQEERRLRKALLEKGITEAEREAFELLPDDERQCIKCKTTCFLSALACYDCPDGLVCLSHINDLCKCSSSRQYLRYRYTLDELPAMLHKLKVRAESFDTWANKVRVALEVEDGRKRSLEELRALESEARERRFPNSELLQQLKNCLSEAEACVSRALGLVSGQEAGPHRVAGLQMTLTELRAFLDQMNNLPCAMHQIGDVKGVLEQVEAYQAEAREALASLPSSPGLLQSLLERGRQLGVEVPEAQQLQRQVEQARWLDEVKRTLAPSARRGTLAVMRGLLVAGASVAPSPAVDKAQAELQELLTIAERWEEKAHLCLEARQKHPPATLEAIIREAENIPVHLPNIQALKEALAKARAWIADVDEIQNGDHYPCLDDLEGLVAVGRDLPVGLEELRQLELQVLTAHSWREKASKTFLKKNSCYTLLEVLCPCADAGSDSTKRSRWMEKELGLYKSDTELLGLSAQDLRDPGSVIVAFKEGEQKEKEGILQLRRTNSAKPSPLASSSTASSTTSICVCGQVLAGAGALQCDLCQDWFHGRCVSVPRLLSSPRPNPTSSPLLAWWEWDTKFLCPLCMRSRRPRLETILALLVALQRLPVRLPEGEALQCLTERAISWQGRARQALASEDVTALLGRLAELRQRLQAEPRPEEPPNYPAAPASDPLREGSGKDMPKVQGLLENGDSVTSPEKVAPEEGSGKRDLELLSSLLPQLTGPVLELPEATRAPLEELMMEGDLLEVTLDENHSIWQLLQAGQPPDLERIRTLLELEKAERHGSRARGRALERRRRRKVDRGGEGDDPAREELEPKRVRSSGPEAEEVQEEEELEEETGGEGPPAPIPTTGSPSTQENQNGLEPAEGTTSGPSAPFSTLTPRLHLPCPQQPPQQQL
UniProt Q96SW2: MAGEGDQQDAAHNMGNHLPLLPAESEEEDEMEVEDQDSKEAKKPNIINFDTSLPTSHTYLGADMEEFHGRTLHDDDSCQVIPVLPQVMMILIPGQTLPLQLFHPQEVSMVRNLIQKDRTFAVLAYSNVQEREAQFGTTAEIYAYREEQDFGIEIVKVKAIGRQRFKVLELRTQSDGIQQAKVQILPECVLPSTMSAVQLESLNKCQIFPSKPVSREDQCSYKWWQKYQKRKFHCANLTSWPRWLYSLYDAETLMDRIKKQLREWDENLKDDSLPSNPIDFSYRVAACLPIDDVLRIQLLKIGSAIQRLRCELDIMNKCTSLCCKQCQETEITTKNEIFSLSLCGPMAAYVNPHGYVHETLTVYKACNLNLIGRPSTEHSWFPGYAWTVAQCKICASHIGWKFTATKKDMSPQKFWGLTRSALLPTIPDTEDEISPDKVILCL

Legend:
FLAG-KDM5C = FLAG-KDM5C (UniProt P41229); assay: co-IP; FLAG affinity gel on RIPA lysates (500 ug protein) of transfected HEK293T cells, overnight at 4 °C, washed three times, western blotting
FLAG-NAC1 = target: T1, FLAG-NAC1 (UniProt Q96RE7); assay: as above
T1 sequence: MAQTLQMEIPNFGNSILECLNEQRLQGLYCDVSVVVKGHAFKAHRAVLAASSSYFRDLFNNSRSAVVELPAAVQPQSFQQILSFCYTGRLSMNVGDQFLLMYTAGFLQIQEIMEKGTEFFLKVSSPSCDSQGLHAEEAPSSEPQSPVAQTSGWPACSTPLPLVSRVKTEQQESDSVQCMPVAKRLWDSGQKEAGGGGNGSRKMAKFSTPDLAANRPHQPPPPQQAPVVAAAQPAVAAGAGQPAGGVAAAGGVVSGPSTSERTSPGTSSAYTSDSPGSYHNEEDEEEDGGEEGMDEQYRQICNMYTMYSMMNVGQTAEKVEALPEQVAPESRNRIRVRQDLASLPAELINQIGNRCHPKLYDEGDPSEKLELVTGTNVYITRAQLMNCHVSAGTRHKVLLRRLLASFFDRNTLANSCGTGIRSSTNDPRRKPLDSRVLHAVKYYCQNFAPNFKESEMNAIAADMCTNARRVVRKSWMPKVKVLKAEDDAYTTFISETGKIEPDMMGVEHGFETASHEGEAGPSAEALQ

FLAG-PICALM = target: T2, FLAG-PICALM (UniProt Q13492); assay: as above
T2 sequence: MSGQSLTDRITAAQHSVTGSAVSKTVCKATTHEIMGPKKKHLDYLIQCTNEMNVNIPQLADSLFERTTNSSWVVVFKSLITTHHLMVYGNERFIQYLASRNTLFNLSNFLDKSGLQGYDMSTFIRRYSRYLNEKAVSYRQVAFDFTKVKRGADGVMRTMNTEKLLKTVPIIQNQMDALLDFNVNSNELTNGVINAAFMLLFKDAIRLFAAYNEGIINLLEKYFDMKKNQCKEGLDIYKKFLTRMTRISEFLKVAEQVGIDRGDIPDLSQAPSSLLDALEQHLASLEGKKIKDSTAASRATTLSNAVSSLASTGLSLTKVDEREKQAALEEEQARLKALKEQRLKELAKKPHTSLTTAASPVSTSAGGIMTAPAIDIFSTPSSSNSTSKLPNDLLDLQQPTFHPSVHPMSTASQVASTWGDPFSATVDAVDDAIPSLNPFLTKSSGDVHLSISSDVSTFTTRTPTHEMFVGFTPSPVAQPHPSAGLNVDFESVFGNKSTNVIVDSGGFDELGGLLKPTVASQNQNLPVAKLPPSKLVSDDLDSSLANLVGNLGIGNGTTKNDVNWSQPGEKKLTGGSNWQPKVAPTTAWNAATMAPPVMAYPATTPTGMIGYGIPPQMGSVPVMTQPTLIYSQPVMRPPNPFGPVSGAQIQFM

[1] = target: endogenous KDM5C (AML cell lines NB4 and THP-1) (human (endogenous in NB4 and THP-1)) (UniProt P41229); assay: co-IP; endogenous proteins; 1 ug IgG or KDM5C antibody and protein A/G agarose beads on lysates of NB4 or THP-1 cells, western blotting

Substance | binding (FLAG-KDM5C) | binding (FLAG-NAC1) | binding (FLAG-PICALM) | binding [1]
HA-CRBN (from UniProt Q96SW2 1-442) | binds | binds | binds | –
endogenous CRBN (AML cell lines NB4 and THP-1) (from UniProt Q96SW2 1-442) | – | – | – | binds
